Some of the results follow. The main result of the screen is listed elsewhere. These columns were measured beside it and carry no call. Most of these compounds were active or inconclusive in the main read-out, so they are no random draw. The note in brackets gives the kind of curve behind each potency; many fits are weak.
Experiment: qHTS Assay for Lipid Storage Modulators in Drosophila S3 Cells;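 on cell number change: cells counted by Cell Tracker Red CMTPX staining in the red channel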
Details: BODIPY lipid droplet fluorescence, 18-24 h; for cell number change: measured here: cell count max response, cells fed with added oleic acid
Procedure, shortened: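 Drosophila S3 cells got compounds at several concentrations plus oleic acid (400 uM solution). Laser-scanning cytometry with 488 nm excitation read lipid droplets at 500-530 nm and cells at 575-640 nm. Percent activity was relative to 20 uM Triacsin C.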

[1] = measured here: cell number channel AC50, cells fed with added oleic acid
[2] = measured here: lipid fluorescence (Fed channel) AC50, cells fed with added oleic acid

| Compound | cell number change [%] | AC50 [1] | AC50 [2] |
| --- | --- | --- | --- |
| CCOc1c2ccc(C(=O)NCCc3ccc(C)cc3)cc2nn1CC | 93 | 11.6 µM [rising, partial curve] | – |
| COc1ccc(C)cc1NC(=O)c1nn(C)c(C(=O)Nc2cc(C)ccc2OC)c1[N+](=O)[O-] | -4.2 | – | 29.1 µM [rising, single point] |
| CCOc1ccc(/C=N/Nc2nncc(-c3ccccc3)n2)cc1OC | 53.8 | 5.8 µM [rising, full curve] | 2.31 µM [rising, single point] |
| O=C(OCc1cc([N+](=O)[O-])cc2c1OCOC2)c1ccc2ccccc2n1 | -4.78 | 6.51 µM [rising, single point] | – |
| O=C1CCCc2cc3c(cc21)CC1(C3)Cc2cc3c(cc2C1)C(=O)CCC3 | 64.8 | 29.1 µM [rising, single point] | 29.1 µM [rising, single point] |
| COc1cc(CNS(=O)(=O)c2ccc3c(c2)CC(C)N3C(=O)C2CCC2)cc(OC)c1OC (stereo not given) | – | 2.31 µM [falling, partial curve] | 2.06 µM [falling, partial curve] |
| Cn1nnnc1SCCNCc1ccccc1OCc1ccccc1Cl | 16.3 | – | – |
| O=C(CCn1cccc1)Nc1ccc(F)cc1 | 1.9 | – | – |
| CCOc1ccc(C2C(=O)N(C3CCCCC3)CC(=O)N2CC2CCCO2)cc1OC (stereo not given) | 16.1 | – | – |
| O=C(NCCN1CCOCC1)c1cc(-c2ccc(Cl)cc2)on1 | 5.88 | – | 0.731 µM [rising, partial curve, poor fit] |
| CCn1cc(S(=O)(=O)c2ccc(OC)cc2)c(=O)c2cc(F)c(N3CCN(C)CC3)cc21 | 34 | 29.1 µM [rising, single point] | – |
| O=C(O)C1CCN(S(=O)(=O)c2ccc(Oc3ccccc3)cc2)CC1 | 0.567 | – | 6.51 µM [falling, single point] |
| Cc1cc(Cl)ccc1OC(C)C(=O)NCCCCc1ccccc1 (stereo not given) | 0.542 | – | 1.16 µM [falling, full curve] |
| OCC[C@@H]1C[C@H](O)[C@@H](O)[C@]2(Cc3ccccc3CO2)O1 | 8.38 | – | 6.51 µM [falling, single point] |
| Cc1c(C#N)c2ncnc(-c3ccccc3)c2n1-c1ccccc1 | 0.656 | – | 0.058 µM [rising, full curve, poor fit] |
| O=C(CN(Cc1cccs1)C(=O)CNS(=O)(=O)c1ccccc1)NCc1ccco1 | 25.3 | – | 29.1 µM [rising, single point] |

8 entries from above, bar-delimited:
Compound | cell number change [%] | AC50 [1] | AC50 [2]
COc1cc(CNS(=O)(=O)c2ccc3c(c2)CC(C)N3C(=O)C2CCC2)cc(OC)c1OC (stereo not given) | – | 2.31 µM [falling, partial curve] | 2.06 µM [falling, partial curve]
Cn1nnnc1SCCNCc1ccccc1OCc1ccccc1Cl | 16.3 | – | –
O=C(CCn1cccc1)Nc1ccc(F)cc1 | 1.9 | – | –
CCOc1ccc(C2C(=O)N(C3CCCCC3)CC(=O)N2CC2CCCO2)cc1OC (stereo not given) | 16.1 | – | –
O=C(NCCN1CCOCC1)c1cc(-c2ccc(Cl)cc2)on1 | 5.88 | – | 0.731 µM [rising, partial curve, poor fit]
CCn1cc(S(=O)(=O)c2ccc(OC)cc2)c(=O)c2cc(F)c(N3CCN(C)CC3)cc21 | 34 | 29.1 µM [rising, single point] | –
O=C(O)C1CCN(S(=O)(=O)c2ccc(Oc3ccccc3)cc2)CC1 | 0.567 | – | 6.51 µM [falling, single point]
Cc1cc(Cl)ccc1OC(C)C(=O)NCCCCc1ccccc1 (stereo not given) | 0.542 | – | 1.16 µM [falling, full curve]

Later entries.

| Compound | cell number change [%] | AC50 [1] | AC50 [2] |
| --- | --- | --- | --- |
| O=C(NCC(F)(F)F)c1ccc(S(=O)(=O)N2CCN(C(=O)C3CCCO3)CC2)cc1 (stereo not given) | -0.251 | – | 0.731 µM [rising, full curve, poor fit] |
| CCN1CCN(C(=O)CCn2c(=O)c3cccn3c3cccnc32)CC1 | 2.65 | – | 3.26 µM [falling, partial curve] |
| C#CCn1c(=NC(=O)c2ccc(Cl)s2)sc2cccc(OC)c21 | – | 6.51 µM [rising, single point] | 6.51 µM [rising, single point] |
| CCC(C(=O)NC1CCCC1)N(Cc1ccco1)C(=O)Cn1nnc(-c2ccc(C)cc2)n1 (stereo not given) | -132 | – | 23.1 µM [falling, single point] |
| C=CCNC(=O)COC(=O)COc1ccc(Cl)cc1C | 0.966 | – | – |
| COc1cccc(CNCc2cccnc2)c1OCc1ccccc1 | 2.39 | 0.164 µM [falling, full curve, poor fit] | – |
| Cc1ccccc1OCC(=O)OCC(=O)c1ccc(OCc2ccccc2)cc1 | 5.56 | – | 0.461 µM [falling, single point] |
| Cc1cccc(NC(=O)c2ccc(S(=O)(=O)N(C)C)cc2)n1 | -4.42 | – | 6.51 µM [rising, single point] |
| CN(C)S(=O)(=O)c1ccc(NC(=O)CN2CCOCC2)cc1 | -9.32 | – | 29.1 µM [falling, single point] |
| CCCNC(=O)CN1CCN(c2cc3ccccc3c(Cl)n2)CC1 | -13.3 | – | – |
| O=C(Nc1ccc(-n2nncc2-c2ccco2)cc1)c1cc2ccccc2oc1=O | 176 | – | – |
| CC1=NN(c2nc(C)cc(C)n2)C(=O)C1CCC(C)C (stereo not given) | 103 | 29.1 µM [rising, single point] | – |
| CCn1c(/C=C/Nc2ccccc2)[n+](CC)c2cc(Cl)c(Cl)cc21 | -9.95 | 6.51 µM [falling, single point] | – |
| O=C(/C=C/c1ccccc1)NCC(=O)N/N=C\c1cccnc1 | -21.6 | 2.31 µM [rising, partial curve] | 0.517 µM [rising, full curve, poor fit] |
| CCC1CCCCN1C(=O)c1nn2cccnc2c1Cl (stereo not given) | 74.9 | 20.6 µM [rising, single point] | 6.51 µM [falling, single point] |

From PubChem BioAssay AID2685 (National Center for Advancing Translational Sciences (NCATS), 2010)
